## Screening data, single-dose tests

Amino acid sequences for entries named in this document (tags omitted).
UniProt P9WFT3, whole entry: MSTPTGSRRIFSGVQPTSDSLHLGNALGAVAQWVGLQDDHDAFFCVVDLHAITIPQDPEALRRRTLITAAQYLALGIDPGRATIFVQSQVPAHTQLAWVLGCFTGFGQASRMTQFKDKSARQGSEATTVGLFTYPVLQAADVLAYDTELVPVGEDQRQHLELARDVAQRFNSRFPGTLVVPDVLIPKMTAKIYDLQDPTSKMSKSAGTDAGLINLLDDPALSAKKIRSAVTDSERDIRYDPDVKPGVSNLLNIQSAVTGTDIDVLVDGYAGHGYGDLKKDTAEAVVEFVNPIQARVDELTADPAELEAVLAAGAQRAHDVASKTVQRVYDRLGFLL
UniProt P9WNZ1, whole entry: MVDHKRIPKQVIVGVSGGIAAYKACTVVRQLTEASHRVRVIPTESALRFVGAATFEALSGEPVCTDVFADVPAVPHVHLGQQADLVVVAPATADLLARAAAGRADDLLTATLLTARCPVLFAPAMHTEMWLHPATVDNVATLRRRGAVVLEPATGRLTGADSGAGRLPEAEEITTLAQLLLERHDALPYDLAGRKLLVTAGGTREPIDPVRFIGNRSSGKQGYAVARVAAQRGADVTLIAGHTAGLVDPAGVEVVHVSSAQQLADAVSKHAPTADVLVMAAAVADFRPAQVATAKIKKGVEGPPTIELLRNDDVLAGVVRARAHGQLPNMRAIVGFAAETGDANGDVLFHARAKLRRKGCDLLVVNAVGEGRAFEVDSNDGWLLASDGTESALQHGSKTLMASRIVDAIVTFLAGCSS

The filed quantity is “Percent Effect” (%).
How 0% and 100% were set is not recorded. Most values in the screen are low, and negative values occur.
This is an unselected part of the compounds tested.

A: 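Cell assay of Leishmania donovani living inside macrophages; the read-out is not stated. Concentration: 30 µM. Higher reads as stronger inhibition (inferred: compounds with an IC50 in retests scored well above the rest). About 69,000 compounds were tested under these conditions; 1.5% (about 1,000) showed 50% or more at least once.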
B: 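Tryptophan-tRNA ligase, Mycobacterium tuberculosis (UniProt P9WFT3). Enzyme assay of tryptophanyl-tRNA synthetase; the read-out is not stated. Concentration: 10 µM. Direction is not recorded; retested compounds ran higher, which suggests that high means inhibition. About 65,000 compounds were tested under these conditions; 0.098% (about 64) showed 50% or more at least once.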
C: 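Assay of Toxoplasma gondii numbers, read through their beta-galactosidase reporter with a colour substrate. Concentration: 10 µM. The record gives no direction; the compounds picked for IC50 retests had high values, so higher reads as fewer parasites. Of about 67,000 compounds tested this way, about 260 (0.38%) reached 50% or more in at least one test.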
D: 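Coenzyme A biosynthesis protein CoaBC, Mycobacterium tuberculosis (UniProt P9WNZ1). Enzyme assay of CoaBC with a phosphate dye (Biomol Green) read at 650 nm. Concentration: 30 µM. Higher reads as stronger inhibition, judged from the few compounds that gave an IC50. Most strong results did not repeat in a second test. Size under these conditions: about 67,000 compounds, about 40 of them at 50% or above in at least one test.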

Result for CSc1nccn1-c1cccc(C(=O)NCC2CC2)c1 was A: 24.57%; B: 2.047%; C: -2.95%; D: 4.174%.
Result for Cc1ccc(CNC(=O)CN2CCN(CC(O)C3CC3)CC2)cc1 (centres undefined) was B: -0.9923%; D: 6.971%.
Result for COc1cccc([C@H]2CN(C(=O)c3cc(C)on3)C[C@@H]2N)c1 was A: 14.77%; B: 3.907%; C: 15.67%; D: 4.845%.
Result for Cc1cccc(NC(=O)[C@@H]2CCCN2Cc2cnc3ccccn23)n1 was A: -11.18%; B: -3.693%; C: -4.07%; D: 0.4132%.
Result for O=C(CN1C[C@H]2C[C@H](OCc3ccccc3)C[C@H]2C1)N1CCOCC1 was B: 2.326%; D: 3.398%.
Result for COCC(=O)NCCc1nc(N(C)C)ncc1-c1ccncc1 was A: 29.7%; B: -3.385%; C: -3.893%; D: 4.067%.
Result for CC(C)=CCC1(C(=O)O)CCCN(CCC(=O)NC2CC2)C1 (centres undefined) was A: 0.5122%; B: -0.7424%; C: 1.936%; D: -0.6361%.
Result for CC1COCCN1C(=O)c1cccc(OCc2cscn2)c1 (centres undefined) was A: 13.22%; B: 1.856%; C: -17.97%; D: 3.109%.
Result for CC(C)C(Sc1cccs1)C(=O)NCc1cccnc1 (centres undefined) was A: 20.25%; B: 7.899%; C: 20.92%; D: -2.526%.
Result for O=C(c1cscn1)N1CC[C@@H]2[C@@H]1CCN2CC1CCOC1 (some centres undefined) was D: 0%.
Result for Cc1cn2c(n1)C(CNCc1cccc3c1OCO3)CCC2 (centres undefined) was A: -63.58%; B: 0.9497%; C: 1.818%; D: -21.4%.
Result for c1cn(Cc2nnc(C3CCN(C4CCNCC4)CC3)n2C2CC2)cn1 was A: 3.799%; B: -3.48%; C: -0.3189%; D: -25.48%.
Result for CCc1cc(CN(C)C(=O)c2nnc(CN(C)C)o2)on1 was A: 1.995%; B: -1.911%; C: 1.441%; D: -1.852%.
Result for CCOC[C@@]12CCC[C@@H]1CN(C(=O)COc1ccccc1OC)C2 was D: -0.4938%.
Result for CC1COC2(CCN(C(=O)Cc3ccncc3)CC2)C1 (centres undefined) was D: -0.8663%.
Result for Cc1ccc(CN2CC(C(=O)N3CCCC3)C3(CCOCC3)C2)s1.O=C(O)C(F)(F)F (centres undefined) was A: 0.1869%; C: 1.603%.
Result for C[C@@H]1CN(C(=O)c2ccc(C#N)nc2)CC[C@@]1(O)C1CCOCC1 was A: -0.1575%; B: 2.09%; C: 2.885%; D: 2.772%.
Result for CCOCC1CC2(CCN(C(=O)c3ccccc3F)CC2)CO1 (centres undefined) was A: 5.617%; B: 3.356%; C: -2.933%; D: 2.703%.
Result for Cc1ccc(NC(=O)C2CSCN2C(=O)c2cccnc2)c(C)c1 (centres undefined) was A: -4.314%; B: 9.492%; C: 16.28%; D: 0.7895%.
Result for [H][C@@]12CC[C@H](Oc3ccccc3F)[C@]1([H])CN(C(=O)Cn1ccnc1)C2 was A: -1.844%; C: 14.08%.
Result for O=C(c1ccc2c(c1)OCO2)N1CCC(Nc2cccnn2)CC1 was A: 0.7118%; B: 30.19%; C: -10.19%; D: 2.452%.
Result for O=C(NN1CCCc2ccccc21)c1c[nH]c(=O)[nH]1 was A: 15.45%; B: -4.909%; C: -38.48%; D: 1.208%.
Result for CN(C)C(c1ccccn1)[C@H]1CC[C@H](CNC(=O)CC2CCCC2)CC1 (some centres undefined) was A: 24.21%; B: -3.907%; C: -5.704%; D: -10.67%.
Result for Cc1nc(N)cc(C2CCN2CCC(N)=O)n1 (centres undefined) was A: -9.587%; B: -4.722%; C: 17.1%; D: -5.825%.
Result for Cc1nc(CN2CCCC(NCc3c(C)nc4sccn34)C2)no1 (centres undefined) was A: 33.67%; B: -2.958%; C: 2.541%; D: 1.928%.
Result for CN(CCC(C)(C)O)C(=O)C1CCC(=O)N(Cc2ccc(Cl)cc2)C1 (centres undefined) was A: 7.809%; B: 0.9726%; C: -3.225%; D: 1.24%.

2 of the entries, repeated:

CC1COCCN1C(=O)c1cccc(OCc2cscn2)c1 (centres undefined) read A: 13.22%; B: 1.856%; C: -17.97%; D: 3.109%.
Cc1nc(N)cc(C2CCN2CCC(N)=O)n1 (centres undefined) read A: -9.587%; B: -4.722%; C: 17.1%; D: -5.825%.

Data taken from ChEMBL document CHEMBL3988442, “University of Dundee, Small-Polar-MMV Screening Library” (2021).